Results reported in publication PMC4600748.
Results are given in words; binding and its absence hold for the method and conditions named. In cells and extracts the contact can be indirect. Tags and fused reporters may be left off the sequences shown.

By UniProt entry, the sequences of proteins in these tests, tags left out. Where a name states a change or a piece, a line headed by the entry shows the natural chain unless it says otherwise. Residues count along the entry.
UniProt Q00657, 30-2326: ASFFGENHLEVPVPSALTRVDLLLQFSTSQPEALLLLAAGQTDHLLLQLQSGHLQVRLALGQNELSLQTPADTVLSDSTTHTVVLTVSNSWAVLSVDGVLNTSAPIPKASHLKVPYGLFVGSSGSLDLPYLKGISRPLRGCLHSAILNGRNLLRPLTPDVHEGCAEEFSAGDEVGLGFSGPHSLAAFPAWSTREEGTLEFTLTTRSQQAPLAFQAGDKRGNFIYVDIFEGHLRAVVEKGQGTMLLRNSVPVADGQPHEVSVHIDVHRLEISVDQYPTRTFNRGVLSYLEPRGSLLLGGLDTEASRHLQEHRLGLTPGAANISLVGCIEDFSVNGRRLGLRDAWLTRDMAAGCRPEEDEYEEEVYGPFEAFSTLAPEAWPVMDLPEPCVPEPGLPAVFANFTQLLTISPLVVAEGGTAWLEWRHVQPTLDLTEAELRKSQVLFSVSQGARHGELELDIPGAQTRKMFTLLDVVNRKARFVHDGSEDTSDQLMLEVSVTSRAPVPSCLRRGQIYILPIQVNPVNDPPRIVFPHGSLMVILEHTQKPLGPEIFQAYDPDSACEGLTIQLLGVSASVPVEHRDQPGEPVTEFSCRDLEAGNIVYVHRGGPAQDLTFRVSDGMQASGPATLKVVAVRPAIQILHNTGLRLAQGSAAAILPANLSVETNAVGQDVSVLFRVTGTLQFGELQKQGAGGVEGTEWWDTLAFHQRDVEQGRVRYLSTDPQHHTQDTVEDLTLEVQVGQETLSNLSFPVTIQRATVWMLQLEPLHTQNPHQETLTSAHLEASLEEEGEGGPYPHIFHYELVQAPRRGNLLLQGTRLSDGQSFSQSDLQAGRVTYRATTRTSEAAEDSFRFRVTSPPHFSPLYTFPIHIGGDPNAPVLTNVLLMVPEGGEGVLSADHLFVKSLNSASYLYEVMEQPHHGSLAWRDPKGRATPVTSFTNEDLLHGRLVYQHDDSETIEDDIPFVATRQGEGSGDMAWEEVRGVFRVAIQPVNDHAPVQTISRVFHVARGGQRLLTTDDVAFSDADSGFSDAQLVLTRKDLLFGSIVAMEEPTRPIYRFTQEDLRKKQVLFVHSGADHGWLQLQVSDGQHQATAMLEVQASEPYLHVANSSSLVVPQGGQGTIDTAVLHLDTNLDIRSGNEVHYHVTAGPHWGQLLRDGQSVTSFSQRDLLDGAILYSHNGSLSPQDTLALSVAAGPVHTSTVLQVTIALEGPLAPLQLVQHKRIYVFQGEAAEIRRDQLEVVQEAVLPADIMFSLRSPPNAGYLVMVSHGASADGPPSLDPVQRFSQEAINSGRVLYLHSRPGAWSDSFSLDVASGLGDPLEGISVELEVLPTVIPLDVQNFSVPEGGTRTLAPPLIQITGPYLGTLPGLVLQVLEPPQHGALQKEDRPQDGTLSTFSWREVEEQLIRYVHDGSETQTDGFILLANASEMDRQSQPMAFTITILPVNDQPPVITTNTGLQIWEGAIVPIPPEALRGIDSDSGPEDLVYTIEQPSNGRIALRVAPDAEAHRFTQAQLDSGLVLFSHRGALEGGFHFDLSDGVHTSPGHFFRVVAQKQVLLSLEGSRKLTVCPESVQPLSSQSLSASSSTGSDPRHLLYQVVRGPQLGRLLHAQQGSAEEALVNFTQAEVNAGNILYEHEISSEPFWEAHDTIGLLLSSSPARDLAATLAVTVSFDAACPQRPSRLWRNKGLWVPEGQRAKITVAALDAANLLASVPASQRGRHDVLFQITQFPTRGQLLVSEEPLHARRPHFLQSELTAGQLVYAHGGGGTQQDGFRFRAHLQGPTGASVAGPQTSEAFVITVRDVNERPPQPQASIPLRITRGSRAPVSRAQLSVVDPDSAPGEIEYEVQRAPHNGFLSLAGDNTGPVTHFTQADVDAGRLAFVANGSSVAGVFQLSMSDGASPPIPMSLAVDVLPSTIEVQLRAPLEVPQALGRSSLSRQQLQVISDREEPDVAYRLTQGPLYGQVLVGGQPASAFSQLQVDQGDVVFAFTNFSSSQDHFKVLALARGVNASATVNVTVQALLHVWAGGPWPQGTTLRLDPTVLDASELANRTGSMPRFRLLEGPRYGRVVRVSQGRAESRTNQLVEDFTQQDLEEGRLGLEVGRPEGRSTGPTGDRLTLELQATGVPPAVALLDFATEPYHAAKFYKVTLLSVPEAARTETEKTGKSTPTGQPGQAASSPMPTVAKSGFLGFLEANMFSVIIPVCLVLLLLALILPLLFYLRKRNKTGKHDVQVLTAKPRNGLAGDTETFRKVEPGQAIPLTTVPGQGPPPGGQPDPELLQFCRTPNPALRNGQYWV

Molecular target: NG2, full-length, overexpressed (UniProt Q00657)
Experiment: co-IP; beads coupled to NG2-specific antibodies incubated with lysates of HEK293T cells overexpressing full-length NG2 and HA-tagged Stonin1 variants; immunoblot with NG2 and HA antibodies

B1: Stonin1-haemagglutinin (HA), full-length (protein, UniProt Q8CDJ8 1-730)
chain: MYSTNPGSWVTFDDDPAFQSSQKRKDFSLETQGVCRPNGLKLTLPTLRDPPSTPSSASSTPLSSPMVDFYFSPGPPSNSPLSTPTKDFPGFPGIPKAGTHVLYPIPECSSSSAPTTAGGVGPPLLLTKPDCSPHVSLPSSHSHTQPTPTLGFTEDAGPQRVQSEARQFEYFQDHCAFSNPFWKDEGSASPFPLDSLASRKPFSPKDKEVPIGHKSLTQCSLDYICEKLEHLHSAETQDPLGDLSMQDPYAGDTVSFVPHSLFRSQPRAGWSFMLRIPEKKNMMSSRQWGPIFLKVLPGGILQMYYEKGLEKPFKEFQLDPHCRLSEPKLENFSMAGKIHTVKVEHVSYSEKRKYHAKTEVVHEPEVEQMLKLGSTEHRDFLEFLTTVEEELIKLPATAKPKNKSYEEQEICLDIQDSLWGKVTKEGQLVESAVVTQICCLCFLNGPAECFLALNDRELQKRDECYFEKEPEKKGIAILDYHFHTCVKAEEFEQSRIIKFVPLDACRFELMRFKTSYEAGELPFAVKSVVTVQGAYVELQAFVNMTPAAQGSPHAGALRSCNNIMIHFPVPAQWIKALWTRNLQRQKSLKAKMNRRACLGSLQEPESEPVIQVTVGSAKYESAYRAVVWKIDRLPDKNSSPDQPHCLSYKLELGSDQEVPSDWYPFATVQFSMLEACASRTEVRSLGVESDAQPQKHVCQRACYNIQVEIEKKWIQVDGEDADKTGGCVTQ
  binding: no binding
